Reference: patent US20200131249A1, “NOVEL PROTEINS AND USE THEREOF” (EVOLVERITAS KFT., priority 2017, published 2020)
These are yes or no findings as the source states them, for the method shown. Some entries that bind do so weakly or less than the wild type.

The chains behind the UniProt entries cited, without tags or fusion partners. Where a name states a change or a piece, a line headed by the entry shows the natural chain unless it says otherwise. Residues count along the entry.
UniProt O00187, residues 287-686: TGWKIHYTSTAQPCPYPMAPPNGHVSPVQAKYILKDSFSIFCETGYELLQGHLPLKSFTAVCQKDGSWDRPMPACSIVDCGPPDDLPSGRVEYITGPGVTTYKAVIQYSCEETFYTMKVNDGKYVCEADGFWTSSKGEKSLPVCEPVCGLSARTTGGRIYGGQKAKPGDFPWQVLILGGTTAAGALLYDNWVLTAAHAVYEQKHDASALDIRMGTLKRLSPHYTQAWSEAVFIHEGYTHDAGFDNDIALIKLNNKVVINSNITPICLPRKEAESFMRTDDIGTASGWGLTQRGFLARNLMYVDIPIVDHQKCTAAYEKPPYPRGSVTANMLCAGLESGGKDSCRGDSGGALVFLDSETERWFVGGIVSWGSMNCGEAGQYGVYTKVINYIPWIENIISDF
UniProt P10646: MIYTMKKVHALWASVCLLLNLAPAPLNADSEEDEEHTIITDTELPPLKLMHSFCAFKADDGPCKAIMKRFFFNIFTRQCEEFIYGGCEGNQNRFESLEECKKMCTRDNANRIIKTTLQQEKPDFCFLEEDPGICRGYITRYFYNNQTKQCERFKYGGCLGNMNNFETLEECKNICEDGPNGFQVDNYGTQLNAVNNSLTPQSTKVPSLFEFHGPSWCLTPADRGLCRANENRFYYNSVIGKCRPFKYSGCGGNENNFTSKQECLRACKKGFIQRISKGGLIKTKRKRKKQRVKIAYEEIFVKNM

Target: human MASP-2 catalytic fragment CCP1-CCP2-SP (human) (UniProt O00187)
Experiment: enzyme inhibition

TFPI-D2, second Kunitz domain (residues 121-178) of human Tissue Factor Pathway Inhibitor-1 (from UniProt P10646 121-178)
binding: binds
